Measured values taken from paper PMC9138040.
Results are given in words; binding and its absence hold for the method and conditions named. In cells and extracts the contact can be indirect. Some entries that bind do so weakly or less than the wild type.

By UniProt entry, the sequences of proteins in these tests, tags left out.
UniProt F1M707: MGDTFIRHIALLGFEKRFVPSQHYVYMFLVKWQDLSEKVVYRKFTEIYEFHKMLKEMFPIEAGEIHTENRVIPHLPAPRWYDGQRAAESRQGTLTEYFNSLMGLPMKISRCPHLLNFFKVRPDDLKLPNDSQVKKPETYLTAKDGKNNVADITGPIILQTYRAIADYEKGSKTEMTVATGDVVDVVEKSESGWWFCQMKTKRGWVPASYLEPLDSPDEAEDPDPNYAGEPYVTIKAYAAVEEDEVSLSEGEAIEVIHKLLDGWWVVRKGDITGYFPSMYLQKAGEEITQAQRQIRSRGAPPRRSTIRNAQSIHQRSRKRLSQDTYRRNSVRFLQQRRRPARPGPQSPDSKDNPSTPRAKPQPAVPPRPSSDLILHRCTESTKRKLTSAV

Target: T1, TNFR1 (rat (endogenous in RMCs)) (UniProt P22934)
T1 sequence: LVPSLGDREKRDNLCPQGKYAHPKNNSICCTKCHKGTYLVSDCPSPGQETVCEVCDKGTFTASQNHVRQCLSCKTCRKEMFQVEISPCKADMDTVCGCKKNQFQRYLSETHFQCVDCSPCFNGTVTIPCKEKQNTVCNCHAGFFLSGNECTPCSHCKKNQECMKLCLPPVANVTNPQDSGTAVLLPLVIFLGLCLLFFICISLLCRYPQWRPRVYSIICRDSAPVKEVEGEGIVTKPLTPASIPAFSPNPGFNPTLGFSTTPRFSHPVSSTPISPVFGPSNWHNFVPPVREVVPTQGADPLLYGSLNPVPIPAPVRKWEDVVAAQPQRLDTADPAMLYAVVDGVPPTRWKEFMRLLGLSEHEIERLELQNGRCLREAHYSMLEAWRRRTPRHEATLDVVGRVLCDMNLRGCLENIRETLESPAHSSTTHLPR
Assay: co-IP; whole-cell lysate (1 mg) of RMCs stimulated with TNF-α for different periods; 2 µg anti-TNFR1 antibody at 4 °C for 24 h, protein A-agarose magnetic beads; Western blotting for TNFR1, Rac1, p47phox

Question: With p47^phox (from UniProt F1M707 1-389) as the substance, how does the binding read?
Answer: The binding was “binds”.
